This passage reports binding results from publication PMC3834835, “Crystal structure of RuvC resolvase in complex with Holliday junction substrate” (Nucleic Acids Research, 2013).

In this experiment the target is RuvC protein from T. thermophilus (Tt-RuvC), unliganded (apo) crystal form (T. thermophilus) (UniProt Q5SJC4). Kind of experiment: crystal structure; apo Tt-RuvC, crystals from 0.1 M citric acid (pH 3.5) and 1.5 M NaCl; SAD, 1.35 Å; asymmetric unit holds a RuvC dimer; both purified.

Results are given in words; binding and its absence hold for the method and conditions named. Some results given as binding are weak or reduced against the parent protein; the word gives no strength.

B1: RuvC protein from T. thermophilus (Tt-RuvC), unliganded (apo) crystal form (enzyme)
chain: MVVAGIDPGITHLGLGVVAVEGKGALKARLLHGEVVKTSPQEPAKERVGRIHARVLEVLHRFRPEAVAVEEQFFYRQNELAYKVGWALGAVLVAAFEAGVPVYAYGPMQVKQALAGHGHAAKEEVALMVRGILGLKEAPRPSHLADALAIALTHAFYARMGTAKPL
modifications: selenomethionine-substituted protein (SAD data)
notes: RuvC Holliday junction resolvase, Thermus thermophilus; No PDB id is printed for the apo structure; also called apo Tt-RuvC; RuvC resolvase; source: E. coli, purified (nickel column, tag cleavage, Mono-S column)
Turning to B1, the binding result was “binds”.
